Source: paper doi:10.1101/2022.02.25.481063
No constants are given. Whether binding was seen depends on the method and setting. Some binding calls cover weakened binding; strength is not graded here.

Molecular target: T1, human TREX1(1-242) wild-type protomer (human) (UniProt Q9NSU2)
T1 sequence: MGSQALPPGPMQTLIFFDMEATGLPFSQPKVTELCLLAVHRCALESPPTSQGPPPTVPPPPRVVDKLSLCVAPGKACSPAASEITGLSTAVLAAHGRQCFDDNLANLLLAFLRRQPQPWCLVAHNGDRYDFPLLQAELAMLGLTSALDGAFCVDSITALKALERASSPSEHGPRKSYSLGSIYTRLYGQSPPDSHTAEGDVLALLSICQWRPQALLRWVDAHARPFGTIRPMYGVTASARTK
Assay: sequential affinity co-purification

B1: human TREX1(1-242) D18N mutant protomer (enzyme, UniProt Q9NSU2-3 1-242)
chain: MGSQALPPGPMQTLIFFNMEATGLPFSQPKVTELCLLAVHRCALESPPTSQGPPPTVPPPPRVVDKLSLCVAPGKACSPAASEITGLSTAVLAAHGRQCFDDNLANLLLAFLRRQPQPWCLVAHNGDRYDFPLLQAELAMLGLTSALDGAFCVDSITALKALERASSPSEHGPRKSYSLGSIYTRLYGQSPPDSHTAEGDVLALLSICQWRPQALLRWVDAHARPFGTIRPMYGVTASARTK
binding: binds
